The campaign covered roughly 410,000 compounds. About 18,000 (4.4%) were called active. Inconclusive means that the source gave no clear call. Such entries were picked first, then a sample of the others. Cut-off read from the data, not from the text of the source: active = activity change below about -60%; inconclusive = no clear call, values can overlap the other calls; inactive = above about -39%.
Test: qHTS Assay for inhibitors of the human cytomegalovirus (HCMV)
Conditions: HFF cells, HCMV-luciferase reporter, 72 h; at 57.5 µM; hits give low values
Summary of the method: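 After 16 h attachment at 37C, HFF cells received test compound and HCMV-luciferase (1 PFU/cell); reporter luminescence read 72 h later, data normalized against buffer-only and known inhibitor Salinomycin.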
% is set by controls: 0 for no effect and ±100 for the full control effect.

| Compound | activity change, negative = inhibition |
| --- | --- |
| CN(CCC#N)C(=O)COC(=O)c1c2c(nc3ccccc13)/C(=C\c1ccco1)CC2 | inconclusive: -49.7% |
| O=C(Nc1ccc(-c2cn3cccnc3n2)cc1)c1ccccc1F | inactive: 7.89% |
| Cc1c(NS(=O)(=O)c2ccc3nc(COc4ccccc4Cl)[nH]c3c2)c(=O)n(-c2ccccc2)n1C | inactive: -24% |
| CC(=O)c1ccc(NC(=O)CSc2nc(=O)n3cccc(C)c3n2)cc1 | inconclusive: -40.2% |
| CCN1CCc2c(sc(NC(=O)Cc3ccccc3)c2C(N)=O)C1 | inconclusive: -41.5% |
| COc1cccc(C(=O)Nc2nc(-c3ccccc3)c(-c3ccccc3)o2)c1 | inconclusive: -43.7% |
| CC(C)CCNC(=O)c1ccc(Cn2c(=S)[nH]c3ccccc3c2=O)cc1 | inactive: 18.4% |
| Cc1cc(Nc2ccccc2Cl)c2ccccc2n1 | active: -73.4% |
| Cn1nnnc1SCc1ccc(C(=O)Nc2ccccc2F)cc1 | inactive: 45.8% |
| CCCCN(CCCC)S(=O)(=O)c1ccc(C(=O)Nc2sc3c(c2C(N)=O)CCN(CC)C3)cc1 | inconclusive: -43.5% |
| O=C(c1cc(S(=O)(=O)N2CCOCC2)ccc1Cl)N1CCC(Cc2ccccc2)CC1 | inactive: -2.2% |
| CCCCNC(=S)N(C)/N=C/c1c(F)c(F)c(F)c(F)c1F | inconclusive: -42.4% |
| Oc1ccccc1/C=N/Nc1ncc(Br)cn1 | active: -98.1% |
| Cc1ccc(N2CCN(C(C(=O)Nc3c(C)cccc3C)c3cc4ccccc4o3)CC2)cc1 (stereo not given) | inactive: -18.6% |
| CC(=O)O[C@H]1[C@H](C)OC=C[C@@H]1OC(C)=O | inconclusive: -40.6% |
| O=c1cc(CN2CCOCC2)c2cc(Cl)ccc2o1 | inactive: 60.4% |
| CC(NC(=O)C1CC12CCC2)c1ccccc1 (stereo not given) | active: -61% |
| CCC(=O)NC(C)c1cc(Cl)c2cccnc2c1O (stereo not given) | active: -97.3% |
| O=C(COc1ccccc1F)OCC(=O)c1ccc([N+](=O)[O-])cc1 | inconclusive: -49.3% |
| COc1cccc(-n2c(-c3ccco3)nc3c(cnn3-c3ccccc3C)c2=O)c1 | inactive: -32.7% |
| COc1ccc(N2CCN(CCC(N)=O)CC2)cc1 | inconclusive: -53.6% |
| CC1Cc2ccccc2N1C(=O)CSc1nnc(Cc2ccccc2)n1CCc1ccccc1 (stereo not given) | inconclusive: -42.1% |
| COC(C(=O)Nc1ccc(S(=O)(=O)Nc2cccc3ccccc23)cc1)c1ccccc1 (stereo not given) | active: -87.8% |
| CCOC(=O)CS(=O)(=O)CC(=O)Nc1ccc([N+](=O)[O-])cc1OC | inconclusive: -40.6% |
| Cc1ccccc1Nc1cc(C(=O)NC2CCC(C)CC2)c2ccccc2n1 (stereo not given) | active: -77.7% |
| Cc1ccc(-c2cc(C(=O)NN3CCOCC3)c3cc(Br)ccc3n2)o1 | inconclusive: -47.6% |
| O=C(NCCc1cnc[nH]1)c1ccc(-c2ccccc2)cc1 | inconclusive: -45.6% |
| CC(C)(CNC(=O)c1ccc(S(=O)(=O)N2CCCC2)cc1)N1CCOCC1 | inconclusive: -44.9% |

Some of the entries above in another layout.
Compound	activity change, negative = inhibition
CN(CCC#N)C(=O)COC(=O)c1c2c(nc3ccccc13)/C(=C\c1ccco1)CC2	inconclusive: -49.7%
Cc1cc(Nc2ccccc2Cl)c2ccccc2n1	active: -73.4%
CCC(=O)NC(C)c1cc(Cl)c2cccnc2c1O (stereo not given)	active: -97.3%

(list continues)

| Compound | activity change, negative = inhibition |
| --- | --- |
| COc1ccc(C(=O)N/N=C/c2ccc(OC)c(CN3CCCc4ccccc43)c2)cc1 | inconclusive: -45.3% |
| COCCN=C1NC(=O)C(CC(=O)Nc2cccc(Cl)c2C)S1 (stereo not given) | inconclusive: -58.7% |
| CN(C)Cc1nc2ccccc2c(=O)n1CC(=O)Nc1cccc(S(=O)(=O)N2CCOCC2)c1 | inactive: -23.6% |
| CCOC(=O)c1c(NC(=O)C2CCCN(S(=O)(=O)c3ccccc3)C2)sc2c1CCCC2 (stereo not given) | inconclusive: -46% |
| O=C(COc1ccc(-n2ccnc2)cc1)Nc1cccc(F)c1 | inconclusive: -50.2% |
| Cc1cc(=O)n2nc(N3CCC(C(=O)NCc4ccccc4F)CC3)sc2n1 | inconclusive: -45.8% |
| CCC(C)(CC(=O)Nc1nccs1)c1ccccc1 (stereo not given) | inactive: -11.3% |
| Cc1cccc(CN2CCN(C3CN(CCc4ccccc4)S(=O)(=O)C3)CC2)c1 (stereo not given) | active: -62.9% |
| NNC(=O)C1C(O)CCC2CN3CCc4c([nH]c5ccccc45)C3CC21 (stereo not given) | active: -100% |
| COc1ccccc1N(C(=O)c1snc(C(N)=O)c1N)C(C(=O)NCc1ccccc1)c1ccc(O)cc1 (stereo not given) | inactive: 40.1% |
| O=[N+]([O-])c1ccc(Nc2ccccc2O)c2nonc12 | active: -60.6% |
| COc1ccc(C(CC(=O)O)n2cnnn2)cc1 (stereo not given) | inconclusive: -41.1% |
| COc1ccc(/C=N/NC(=O)C2c3ccccc3-c3ccccc32)cc1 | inconclusive: -45.4% |
| COc1cccc(-c2nnc(NC(=O)c3ccc(S(=O)(=O)N4CC(C)OC(C)C4)cc3)o2)c1 (stereo not given) | active: -94.4% |
| CCOc1ccc(C(=O)NCC(=O)NCC(c2ccco2)N2CCCCC2)cc1OCC (stereo not given) | inactive: -16.9% |
| CCOC(=O)c1c(C)[nH]c(CCC(=O)Nc2ccccc2OCC)c1C | inconclusive: -49.4% |
| CCOC(=O)C1=C(c2cccc(Oc3ccccc3)c2)NC(=S)NC1C (stereo not given) | inconclusive: -44.7% |
| CCCCCCN1C[C@@H](n2cc(-c3ccc(F)cc3)nn2)[C@H](O)C[C@@H]1c1ccc(Cl)cc1 | active: -94.7% |
| CCN1CCN(c2cc(C)c3cc(NC(=O)c4cc(Br)ccc4Cl)ccc3n2)CC1 | active: -72.2% |
| CCOC(=O)[C@@H]1[C@H]2COc3ccc(Br)cc3[C@@H]2N2C(=O)N(c3ccc(C)cc3)C(=O)[C@@]12C | inactive: -20.2% |
| Cc1cccc(-c2noc(CCC(=O)Nc3ccccc3)n2)c1 | inconclusive: -46.9% |
| CN(C)c1ccc(CNC(=O)Cn2c(=O)oc3cc(S(=O)(=O)NCc4ccccc4)ccc32)cc1 | inconclusive: 0% |
| O=C(Nc1ccc2c(c1)OCCO2)C1CCCC1 | inconclusive: -53.9% |
| CCc1ccc(S(=O)(=O)ON2C(=O)c3ccccc3C2=O)cc1 | inconclusive: -56.6% |
| C=CCNC(=O)c1onc(CSc2cc(C)cc(C)c2)c1C(=O)NCC=C | inconclusive: -50% |
| Cc1ccc(N2C(=O)c3cccc([N+](=O)[O-])c3C2=O)cc1C | inactive: -34.2% |
| CN(C)CCNC(=O)c1cccc(-c2cnc3ccc(-c4cccc(F)c4)nn23)c1 | inconclusive: -41.6% |
